No constants are given. Whether binding was seen depends on the method and setting. Some entries that bind do so weakly or less than the wild type.
Target: VEGFR2 (UniProt P35968)
Test: phage display selection

Amino acid sequences for entries named in this document (tags omitted). Residues count along the entry.
UniProt P35968, residues 20-764: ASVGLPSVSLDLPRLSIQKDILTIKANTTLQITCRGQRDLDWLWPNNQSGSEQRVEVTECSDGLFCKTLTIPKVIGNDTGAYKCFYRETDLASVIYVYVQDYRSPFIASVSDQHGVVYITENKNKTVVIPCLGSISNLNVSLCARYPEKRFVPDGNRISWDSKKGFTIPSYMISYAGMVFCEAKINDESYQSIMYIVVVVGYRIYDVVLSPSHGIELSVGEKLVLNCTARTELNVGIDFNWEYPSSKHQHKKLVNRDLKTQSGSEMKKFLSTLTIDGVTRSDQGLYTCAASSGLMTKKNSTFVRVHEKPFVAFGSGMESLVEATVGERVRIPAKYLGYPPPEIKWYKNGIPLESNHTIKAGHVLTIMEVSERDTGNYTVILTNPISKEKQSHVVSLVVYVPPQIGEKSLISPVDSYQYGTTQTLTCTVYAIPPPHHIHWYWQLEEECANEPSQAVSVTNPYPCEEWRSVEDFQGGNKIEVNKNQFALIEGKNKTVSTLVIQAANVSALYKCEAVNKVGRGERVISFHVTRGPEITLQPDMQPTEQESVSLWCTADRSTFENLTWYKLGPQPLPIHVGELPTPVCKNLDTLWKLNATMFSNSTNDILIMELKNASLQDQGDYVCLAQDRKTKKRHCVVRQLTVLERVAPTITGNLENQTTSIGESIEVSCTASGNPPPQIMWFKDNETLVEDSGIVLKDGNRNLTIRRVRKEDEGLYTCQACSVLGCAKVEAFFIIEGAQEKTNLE

binding	Binder
binds	SEQ ID NO 268 (designed binder) NVSPPRRARVTDATETTITIRWGAPELDGGSGIPSFQVDAVPANGQTPIQRTINADISTYTITGLQPGTDYKIYLYTLNDNARSSPVVIDAST
binds	SEQ ID NO 294 (designed binder) NVSPPRRARVTDATETTITIRWSTPAYAGGGEVPSFQVDAVPANGQTPIQRTINADVSTYTITGLQPGTDYKIYLYTLNDNARSSPVVIDAST
binds	SEQ ID NO 271 (designed binder) NVSPPRRARVTDATETTITIRWGQPRYNGGSTVPSFQVDAVPANGQTPIQRTINADISTYTITGLQPGTDYKIYLYTLNDNARSSPVVIDAST
binds	SEQ ID NO 269 (designed binder) NVSPPRSARVTDATETTITIRWDTPGDAGGSGIPSFQVDAVPANGQTPIQRTINADVSTYTITGLQPGTDYKIYLYTLNDNARSSPVVIDAST
binds	SEQ ID NO 297 (designed binder) NVSPPRRARVTDATETTITIRWRTPADTGGAGIPSFQVDAVPANGQTPIQRTIHADVSTYTITGLQPGTDYKIYLYTLNDNARSSPVVIDAST
binds	SEQ ID NO 266 (designed binder) NVSPPRRARVTDATETTITIRWAVSQSAFDSFQVDAVPANGQTPIQRTIHATTSTYTITGLQPGTDYKIYLYTLNDNARSSPVVIDAST
binds	SEQ ID NO 283 (designed binder) NVSPPRRARVTDATETTITIRWAVAGSEFDSFQVDAVPANGQTPIQRTIHAATTTYTITGLQPGTDYKIYLYTLNDNARSSPVVIDAST
binds	SEQ ID NO 278 (designed binder) NVSPPRCARVTDATETTITIRWRVAGSEFDSFQVDAVPANGQTPIQRTIHAATTTYTITGLQPGTDYKIYLYTLNDNARSSPVVIDAST
binds	SEQ ID NO 279 (designed binder) NVSPPRHARVTDATETTITIRWTVAESTFDSFQVDAVPANGQTPIQRTIHAATTTYTITGLQPGTDYKIYLYTLNDNARSSPVVIDAST
binds	1637103_VGR2F12 (designed binder) NVSPPRHARVTDATETTITIRWRVAGSEFDSFQVDAVPANGQTPIQRTIHAATTTYTITGLQPGTDYKIYLYTLNDNARSSPVVIDAST
binds	SEQ ID NO 282 (designed binder) NVSPPRRARVTDATETTITIRWRVAGSEFDSFQVDAVPANGQTPIQRTIHAATTTYTITGLQPGTYYKIYLYTLNDNARSSPVVIDAST
binds	SEQ ID NO 290 (designed binder) NVSPPRHARVTDATETTITIRWTVSASEFDSFQVDAVPANGQTPIQRTIHATTTTYTITGLQPGTDYKIYLYTLNDNARSSPVVIDAST
binds	1637103_VGR2E12 (designed binder) NVSPPRRARVTDATETTITIRWKVAGGTFDSFQVDAVPANGQTPIQRTINAATTTYTITGLQPGTDYKIYLYTLNDNARSSPVVIDAST
binds	SEQ ID NO 276 (designed binder) NVSPPRHARVTDATETTITIRWKVAGGTFDSFQVDAVPANGQTPIQRTINAATTTYTITGLQPGTDYKIYLYTLNDNARSSPVVIDAST
binds	SEQ ID NO 292 (designed binder) NVSPPRRARVTDATETTITIRWKVAGGEFDSFQVDAVPANGQTPIQRTIHAATTTYTITGLQPGTDYKIYLYTLNDNARSSPVVIDAST
binds	SEQ ID NO 277 (designed binder) NVSPPRRARVTDATETTITIRWKVAGSEFDSFQVDAVPANGQTPIQRTIHAATTTYTITGLQPGTDYKIYLYTLNDNARSSPVVIDAST
binds	SEQ ID NO 280 (designed binder) NVSPPRSARVTDATETTITIRWKVAGGTFDSFQVDAVPANGQTPIQRTINAATTTYTITGLQPGTDYKIYLYTLNDNARSSPVVIDAST
binds	1637103_VGR2H03 (designed binder) NVSPPRRARVTDATETTITIRWRVAGSEFDSFQVDAVPANGQTPIQRTIHAATTTYTITGLQPGTDYKIYLYTLNDNARSSPVVIDAST
binds	SEQ ID NO 288 (designed binder) NVSPPRRARVTDATETTITISWRLPAGAVAGFQVDAVPANGQTPIQRTIKPDVRSYTITGLQPGTDYKIYLYTLTRGRGGSSPVVIDAST
binds	1637102_VGR2F11 (designed binder) NVSPPRRARVTDATETTITIRWTRAAGEVDGFQVDAVPANGQTPIQRTINADTNTYTITGLQPGTDYKIYLYTLNDNARSSPVVIDAST
binds	SEQ ID NO 272 (designed binder) NVSPPRSARVTDATETTITIRWTRARSEVIGFQVDAVPANGQTPIQRTINADTNIYTITGLQPGTDYKIYLYTLNDNARSSPVVIDAST
binds	SEQ ID NO 289 (designed binder) NVSPPRSARVTDATETTITIRWTRAAGEVDGFQVDAVPANGQTPIQRTINADTNTYTITGLQPGTDYKIYLYTLNDNARSSPVVIDAST
binds	SEQ ID NO 291 (designed binder) NVSPPRCARVTDATETTITIRWTRAAGEVDGFQVDAVPANGQTPIQRTINADTNTYTITGLQPGTDYKIYLYTLNDNARSSPVVIDAST
binds	SEQ ID NO 293 (designed binder) NVSPPRRARVTDATETTITIRWARAPGPFDGFQVDAVPANGQTPIQRTINADTNIYTITGLQPGTDYKIYLYTFNDNARSSPVVIDAST
binds	SEQ ID NO 287 (designed binder) NVSPPRRARVTDATETTITIRWERARSEVDGFQVDAVPANGQTPIQRTINADTNVYTITGLQPGTDYKIYLYTLNDNARSSPVVIDAST
binds	SEQ ID NO 267 (designed binder) NVSPPRRARVTDATETTITIRWELPIEASGLVPGFQVDAVPANGQTPIQRTINADTSTYTITGLQPGTDYKIYLYTLNDNARSSPVVIDAST
binds	SEQ ID NO 298 (designed binder) NVSPPRRARVTDATETTITIRWAQGGNGSGVIPSFQVDAVPANGQTPIQRTINADVSTYTITGLQPGTDYKIYLYTLNDNARSSPVVIDAST
binds	SEQ ID NO 299 (designed binder) NVSPPRRARVTDATETTITIRWELGSDRDSEVPSFQVDAVPANGQTPIQRTINADISTYTITGLQPGTDYKIYLYTLNDNARSSPVVIDAST
binds	SEQ ID NO 296 (designed binder) NVSPPRRARVTDATETTITIRWQLPIRADSAIPSFQVDAVPANGQTPIQRTINADISTYTITGLQPGTDYKIYLYTLNDNARSSPVVIDAST
